The list shows a part of the results.
Compound: C1COCCN1CCN2C3=CC=CC=C3N=C2NC(=O)C4=CC(=CC=C4)[N+](=O)[O-] [IRAK-1-4 Inhibitor I]
Assay: log2 fold change, soluble protein after heating vs DMSO (PISA); higher = thermal stabilisation; K562 cells, 10 uM, 30 min; active = over 0.2 and 3.5 SD of the protein, either way, in both replicates (recomputed)
How it was run: (§1)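 K562 cells at 2×10^6 cells/mL were exposed to 10 μM compound for 30 min, then aliquots were heated for 3 min across 48°C-58°C, pooled, and extracted in PBS containing 0.5% NP-40 at 4°C. The supernatant after 21,000xg for 90 min was taken as soluble protein and measured by TMTpro 16plex LC-MS/MS with channel sums equalised. Thermal stability is reported relative to control samples, with values from duplicates. Fold changes are given on a log2 scale.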

By UniProt entry, the sequences of proteins in these tests, tags left out. Where a name states a change or a piece, a line headed by the entry shows the natural chain unless it says otherwise.
UniProt Q05084: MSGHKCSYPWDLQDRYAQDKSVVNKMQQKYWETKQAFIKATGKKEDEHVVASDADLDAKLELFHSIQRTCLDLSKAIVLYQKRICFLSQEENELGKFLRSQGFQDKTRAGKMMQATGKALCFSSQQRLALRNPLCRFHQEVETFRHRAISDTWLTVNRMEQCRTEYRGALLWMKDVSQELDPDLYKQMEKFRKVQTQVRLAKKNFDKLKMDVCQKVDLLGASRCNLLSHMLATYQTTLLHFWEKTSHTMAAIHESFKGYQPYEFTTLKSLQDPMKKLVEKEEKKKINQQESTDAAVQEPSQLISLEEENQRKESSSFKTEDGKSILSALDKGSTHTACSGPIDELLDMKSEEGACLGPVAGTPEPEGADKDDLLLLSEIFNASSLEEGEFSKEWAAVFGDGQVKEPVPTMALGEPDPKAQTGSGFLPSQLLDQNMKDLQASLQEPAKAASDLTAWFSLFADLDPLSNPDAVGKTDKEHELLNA
UniProt Q96EW2: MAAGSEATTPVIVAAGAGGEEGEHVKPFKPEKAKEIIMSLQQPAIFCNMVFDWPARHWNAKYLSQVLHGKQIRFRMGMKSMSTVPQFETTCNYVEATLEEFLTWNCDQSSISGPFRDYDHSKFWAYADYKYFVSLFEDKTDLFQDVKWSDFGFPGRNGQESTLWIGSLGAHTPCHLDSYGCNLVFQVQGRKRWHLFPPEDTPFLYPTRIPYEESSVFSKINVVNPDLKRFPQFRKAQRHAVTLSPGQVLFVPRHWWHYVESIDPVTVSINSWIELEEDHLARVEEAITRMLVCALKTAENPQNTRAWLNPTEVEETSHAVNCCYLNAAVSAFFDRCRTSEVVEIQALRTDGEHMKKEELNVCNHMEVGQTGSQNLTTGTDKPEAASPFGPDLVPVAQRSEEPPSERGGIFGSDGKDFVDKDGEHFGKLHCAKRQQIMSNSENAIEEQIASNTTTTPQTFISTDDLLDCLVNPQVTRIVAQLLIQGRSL
UniProt Q9BW72: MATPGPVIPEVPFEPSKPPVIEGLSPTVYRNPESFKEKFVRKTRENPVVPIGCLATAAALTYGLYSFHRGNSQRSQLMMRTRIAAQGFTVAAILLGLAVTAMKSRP
UniProt O75506: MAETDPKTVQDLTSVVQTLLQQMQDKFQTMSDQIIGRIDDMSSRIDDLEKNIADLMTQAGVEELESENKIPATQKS
UniProt Q96FZ2: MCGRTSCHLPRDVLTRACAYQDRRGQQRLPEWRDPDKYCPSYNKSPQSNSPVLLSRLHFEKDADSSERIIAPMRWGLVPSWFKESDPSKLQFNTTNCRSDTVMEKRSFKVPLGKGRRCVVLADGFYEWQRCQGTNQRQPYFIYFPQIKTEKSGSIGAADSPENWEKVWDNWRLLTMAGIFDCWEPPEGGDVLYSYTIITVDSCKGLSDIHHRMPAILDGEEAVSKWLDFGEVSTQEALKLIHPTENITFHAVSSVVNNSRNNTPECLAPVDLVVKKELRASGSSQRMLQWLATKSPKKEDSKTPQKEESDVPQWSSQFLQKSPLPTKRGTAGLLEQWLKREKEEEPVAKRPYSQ
UniProt Q92902: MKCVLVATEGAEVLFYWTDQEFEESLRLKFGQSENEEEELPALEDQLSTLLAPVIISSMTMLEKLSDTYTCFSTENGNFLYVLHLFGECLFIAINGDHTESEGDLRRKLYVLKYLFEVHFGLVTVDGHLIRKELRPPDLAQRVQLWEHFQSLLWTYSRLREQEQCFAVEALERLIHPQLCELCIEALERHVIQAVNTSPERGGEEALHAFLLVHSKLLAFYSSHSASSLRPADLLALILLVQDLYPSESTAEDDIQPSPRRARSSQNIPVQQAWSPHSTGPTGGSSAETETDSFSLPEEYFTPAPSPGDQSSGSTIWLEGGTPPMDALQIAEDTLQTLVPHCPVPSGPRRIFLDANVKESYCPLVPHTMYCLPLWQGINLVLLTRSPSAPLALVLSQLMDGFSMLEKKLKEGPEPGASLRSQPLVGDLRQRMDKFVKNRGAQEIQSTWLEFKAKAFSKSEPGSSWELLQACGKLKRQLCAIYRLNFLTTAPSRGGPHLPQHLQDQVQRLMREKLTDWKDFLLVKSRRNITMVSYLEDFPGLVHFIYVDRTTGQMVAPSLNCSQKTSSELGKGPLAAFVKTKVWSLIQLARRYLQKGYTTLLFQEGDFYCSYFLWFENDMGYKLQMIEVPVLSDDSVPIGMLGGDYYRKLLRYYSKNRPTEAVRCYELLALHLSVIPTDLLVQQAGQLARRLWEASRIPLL
UniProt Q7Z6Z7, whole entry, looked up: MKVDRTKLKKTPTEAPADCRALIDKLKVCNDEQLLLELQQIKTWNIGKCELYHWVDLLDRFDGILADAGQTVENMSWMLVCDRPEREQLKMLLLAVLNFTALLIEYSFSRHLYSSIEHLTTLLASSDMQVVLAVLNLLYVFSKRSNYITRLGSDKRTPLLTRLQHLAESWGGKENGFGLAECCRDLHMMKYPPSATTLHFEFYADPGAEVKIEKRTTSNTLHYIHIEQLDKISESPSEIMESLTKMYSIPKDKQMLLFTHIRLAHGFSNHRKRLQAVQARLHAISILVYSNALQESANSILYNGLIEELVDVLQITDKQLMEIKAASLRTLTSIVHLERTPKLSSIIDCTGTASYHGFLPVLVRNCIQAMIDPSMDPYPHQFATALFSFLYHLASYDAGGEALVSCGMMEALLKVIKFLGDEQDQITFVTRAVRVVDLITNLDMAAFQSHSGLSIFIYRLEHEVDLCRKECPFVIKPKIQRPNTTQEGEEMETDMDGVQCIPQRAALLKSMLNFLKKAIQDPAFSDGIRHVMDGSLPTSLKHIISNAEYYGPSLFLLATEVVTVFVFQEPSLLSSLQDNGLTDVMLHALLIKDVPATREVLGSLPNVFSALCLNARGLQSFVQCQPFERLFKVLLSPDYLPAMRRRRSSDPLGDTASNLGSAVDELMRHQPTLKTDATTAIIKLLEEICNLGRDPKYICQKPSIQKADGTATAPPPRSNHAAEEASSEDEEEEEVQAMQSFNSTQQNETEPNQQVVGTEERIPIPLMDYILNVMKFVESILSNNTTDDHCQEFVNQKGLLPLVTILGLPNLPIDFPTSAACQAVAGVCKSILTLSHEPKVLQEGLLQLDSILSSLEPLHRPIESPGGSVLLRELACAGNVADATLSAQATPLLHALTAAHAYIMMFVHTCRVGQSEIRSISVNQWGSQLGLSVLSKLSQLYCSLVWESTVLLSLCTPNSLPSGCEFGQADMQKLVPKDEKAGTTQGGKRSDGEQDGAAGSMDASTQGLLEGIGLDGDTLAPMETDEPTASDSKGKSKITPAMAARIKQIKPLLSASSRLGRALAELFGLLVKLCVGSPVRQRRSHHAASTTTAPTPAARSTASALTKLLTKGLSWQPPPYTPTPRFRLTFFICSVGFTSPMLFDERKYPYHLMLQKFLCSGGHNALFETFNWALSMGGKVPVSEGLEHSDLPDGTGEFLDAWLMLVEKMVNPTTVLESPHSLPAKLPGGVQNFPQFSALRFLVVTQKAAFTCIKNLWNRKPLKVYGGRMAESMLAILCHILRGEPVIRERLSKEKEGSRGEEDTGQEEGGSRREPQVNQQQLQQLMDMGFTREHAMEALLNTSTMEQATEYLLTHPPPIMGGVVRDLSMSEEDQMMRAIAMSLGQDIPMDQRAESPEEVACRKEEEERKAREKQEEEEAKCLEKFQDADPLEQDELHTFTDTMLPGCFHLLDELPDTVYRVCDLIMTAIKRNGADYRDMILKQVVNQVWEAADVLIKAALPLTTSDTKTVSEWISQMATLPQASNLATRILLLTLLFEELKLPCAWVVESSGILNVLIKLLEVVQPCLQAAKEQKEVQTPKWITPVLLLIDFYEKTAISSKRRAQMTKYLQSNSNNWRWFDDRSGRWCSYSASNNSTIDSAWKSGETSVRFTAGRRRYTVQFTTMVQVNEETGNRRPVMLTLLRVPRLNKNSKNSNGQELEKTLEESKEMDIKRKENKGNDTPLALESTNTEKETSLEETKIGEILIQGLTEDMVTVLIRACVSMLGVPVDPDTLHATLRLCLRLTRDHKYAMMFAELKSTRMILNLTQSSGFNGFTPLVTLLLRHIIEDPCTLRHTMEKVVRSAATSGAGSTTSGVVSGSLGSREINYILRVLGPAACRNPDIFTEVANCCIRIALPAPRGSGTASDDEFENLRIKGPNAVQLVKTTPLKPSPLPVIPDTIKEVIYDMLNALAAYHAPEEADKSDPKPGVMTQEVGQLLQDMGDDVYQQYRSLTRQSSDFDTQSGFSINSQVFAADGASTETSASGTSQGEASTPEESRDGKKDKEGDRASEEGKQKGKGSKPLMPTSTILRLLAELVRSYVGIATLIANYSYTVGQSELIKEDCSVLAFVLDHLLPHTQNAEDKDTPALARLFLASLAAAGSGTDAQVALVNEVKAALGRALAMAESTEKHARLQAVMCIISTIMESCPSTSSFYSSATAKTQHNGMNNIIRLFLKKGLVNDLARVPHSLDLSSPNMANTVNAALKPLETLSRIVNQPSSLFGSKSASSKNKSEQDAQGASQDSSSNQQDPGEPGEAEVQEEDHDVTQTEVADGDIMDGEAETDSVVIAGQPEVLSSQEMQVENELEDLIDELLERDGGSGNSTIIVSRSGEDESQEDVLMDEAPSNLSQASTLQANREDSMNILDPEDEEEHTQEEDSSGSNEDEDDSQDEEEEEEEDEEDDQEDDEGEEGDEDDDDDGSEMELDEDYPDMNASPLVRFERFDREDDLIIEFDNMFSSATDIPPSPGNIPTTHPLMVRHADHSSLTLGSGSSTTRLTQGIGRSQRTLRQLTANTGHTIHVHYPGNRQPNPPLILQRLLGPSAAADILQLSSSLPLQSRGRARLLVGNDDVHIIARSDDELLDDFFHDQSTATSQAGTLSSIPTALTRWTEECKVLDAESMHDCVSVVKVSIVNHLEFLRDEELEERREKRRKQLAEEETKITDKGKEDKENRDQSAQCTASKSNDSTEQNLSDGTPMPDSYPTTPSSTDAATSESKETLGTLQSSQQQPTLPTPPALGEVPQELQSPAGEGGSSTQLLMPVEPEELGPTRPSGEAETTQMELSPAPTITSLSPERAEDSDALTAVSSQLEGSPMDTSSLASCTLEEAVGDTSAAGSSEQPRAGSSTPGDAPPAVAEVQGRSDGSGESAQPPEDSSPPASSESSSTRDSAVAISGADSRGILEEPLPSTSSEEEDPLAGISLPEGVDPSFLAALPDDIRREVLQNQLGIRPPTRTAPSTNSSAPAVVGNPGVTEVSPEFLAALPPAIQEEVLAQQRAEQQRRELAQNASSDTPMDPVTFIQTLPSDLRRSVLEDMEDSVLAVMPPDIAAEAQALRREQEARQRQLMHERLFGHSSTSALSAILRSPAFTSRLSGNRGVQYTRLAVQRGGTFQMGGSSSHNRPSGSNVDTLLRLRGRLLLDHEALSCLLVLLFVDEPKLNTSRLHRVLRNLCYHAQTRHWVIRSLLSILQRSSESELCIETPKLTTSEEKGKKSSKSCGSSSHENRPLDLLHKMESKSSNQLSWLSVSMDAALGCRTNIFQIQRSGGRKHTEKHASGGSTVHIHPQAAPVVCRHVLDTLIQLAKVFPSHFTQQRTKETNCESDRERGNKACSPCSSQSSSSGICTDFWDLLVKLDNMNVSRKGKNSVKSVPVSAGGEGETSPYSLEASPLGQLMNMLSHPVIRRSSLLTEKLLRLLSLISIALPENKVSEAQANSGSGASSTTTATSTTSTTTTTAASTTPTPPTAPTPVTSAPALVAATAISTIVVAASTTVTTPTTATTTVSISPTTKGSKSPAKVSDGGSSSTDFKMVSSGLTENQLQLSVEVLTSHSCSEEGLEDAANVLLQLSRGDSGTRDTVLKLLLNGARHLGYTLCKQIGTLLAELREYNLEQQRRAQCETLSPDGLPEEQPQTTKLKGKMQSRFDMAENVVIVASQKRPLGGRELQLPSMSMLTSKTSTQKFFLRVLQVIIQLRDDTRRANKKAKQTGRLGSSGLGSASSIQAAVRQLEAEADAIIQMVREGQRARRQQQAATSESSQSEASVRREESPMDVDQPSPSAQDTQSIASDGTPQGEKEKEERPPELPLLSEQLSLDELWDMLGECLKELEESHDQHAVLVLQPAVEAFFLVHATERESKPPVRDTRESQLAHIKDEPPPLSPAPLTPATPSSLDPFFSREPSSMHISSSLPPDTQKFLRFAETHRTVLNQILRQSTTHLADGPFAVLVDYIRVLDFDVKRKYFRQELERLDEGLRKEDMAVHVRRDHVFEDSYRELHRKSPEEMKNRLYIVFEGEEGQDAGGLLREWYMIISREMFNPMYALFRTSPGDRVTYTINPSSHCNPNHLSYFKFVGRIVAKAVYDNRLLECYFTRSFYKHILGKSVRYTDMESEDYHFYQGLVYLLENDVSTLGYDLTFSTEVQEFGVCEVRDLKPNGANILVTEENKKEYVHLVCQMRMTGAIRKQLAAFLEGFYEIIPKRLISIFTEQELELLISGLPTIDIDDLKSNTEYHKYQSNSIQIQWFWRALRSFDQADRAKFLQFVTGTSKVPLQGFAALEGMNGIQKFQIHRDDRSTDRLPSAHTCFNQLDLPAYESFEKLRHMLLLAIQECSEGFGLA

Target	log2 fold change
HPS4 isoform 4 (UniProt Q9NQG7)	inactive: 0.06
HMBS (UniProt F5H226)	inactive: 0.172
HOOK2 (UniProt Q96ED9)	inactive: 0.094
HTR1F (UniProt P30939)	inactive: -0.058
HNRNPUL1 (UniProt M0R247)	inactive: 0.041
HSCB (UniProt Q8IWL3)	inactive: -0.049
ICA1 isoform 2 (UniProt Q05084)	inactive: 0.066
HSPBAP1 (UniProt Q96EW2)	inactive: 0.079
HIGD2A (UniProt Q9BW72)	inactive: -0.046
HMG20B (UniProt Q9P0W2)	inactive: -0.257

Compound: C=CC(=O)N1CCC[C@@H](n2nc(-c3ccc(Oc4ccccc4)cc3)c3c(N)ncnc32)C1 [ibrutinib]
Assay: as above
How it was run: as §1

Target	log2 fold change
HTD2 (UniProt P86397)	inactive: -0.245
ICE2 (UniProt Q659A1)	inactive: 0.029
HMBS (UniProt F5H226)	inactive: 0.126
ICOSLG isoform 2 (UniProt O75144)	inactive: 0.275
HMGN5 (UniProt Q5JSK9)	inactive: 0.012
HYOU1, A0A494C039	inactive: -0.086
ID1 (UniProt P41134)	inactive: 0.095
HSBP1 (UniProt O75506)	inactive: -0.077
HMCES (UniProt Q96FZ2)	inactive: 0.169
HMG20B (UniProt Q9P0W2)	inactive: -0.097
HPS1 (UniProt Q92902)	inactive: -0.021
HSF1 (UniProt Q00613)	inactive: -0.115

Compound: CC(=O)c1cnc2ccc(-c3cc(Cl)c(O)c(Cl)c3)nc2c1N[C@H]1CC[C@H](CN(C)C)CC1
Assay: as above
How it was run: as §1

Target	log2 fold change
HTD2 (UniProt P86397)	inactive: 0.068
ICE2 (UniProt Q659A1)	inactive: -0.092
HMGN5 (UniProt Q5JSK9)	inactive: -0.133
HOMER2 (UniProt Q9NSB8)	inactive: 0.062
HTR1F (UniProt P30939)	inactive: -0.047
HNRNPUL1 (UniProt M0R247)	inactive: -0.259
HYOU1, A0A494C039	inactive: 0.098
HSCB (UniProt Q8IWL3)	inactive: 0.184
ICA1 isoform 2 (UniProt Q05084)	inactive: -0.038
HUWE1 isoform 2 (UniProt Q7Z6Z7)	inactive: 0.045
HSPBAP1 (UniProt Q96EW2)	inactive: 0.127
HMCES (UniProt Q96FZ2)	inactive: -0.121
HPS1 (UniProt Q92902)	inactive: -0.07
HOOK1 (UniProt Q9UJC3)	inactive: -0.197
HOXD9 (UniProt P28356)	inactive: -0.006
HSF1 (UniProt Q00613)	inactive: -0.178
